Measured values taken from PubChem BioAssay AID1259354 (Paczesny and Yang Labs, IUPUI and University of Michigan, 2018).
Out of some 78,000 compounds screened, about 1,800 (2.3%) were called active. This list was built around the results that the source calls inconclusive (neither active nor inactive); the mix of calls is not that of the screen. Rule as the data show it: active = inhibition above about 30%; inconclusive = mostly about 10% to 28%; inactive = weaker than that.

Amino acid sequences for entries named in this document (tags omitted). A change or cut given only in a name is not applied to a line headed by its entry.
UniProt Q01638: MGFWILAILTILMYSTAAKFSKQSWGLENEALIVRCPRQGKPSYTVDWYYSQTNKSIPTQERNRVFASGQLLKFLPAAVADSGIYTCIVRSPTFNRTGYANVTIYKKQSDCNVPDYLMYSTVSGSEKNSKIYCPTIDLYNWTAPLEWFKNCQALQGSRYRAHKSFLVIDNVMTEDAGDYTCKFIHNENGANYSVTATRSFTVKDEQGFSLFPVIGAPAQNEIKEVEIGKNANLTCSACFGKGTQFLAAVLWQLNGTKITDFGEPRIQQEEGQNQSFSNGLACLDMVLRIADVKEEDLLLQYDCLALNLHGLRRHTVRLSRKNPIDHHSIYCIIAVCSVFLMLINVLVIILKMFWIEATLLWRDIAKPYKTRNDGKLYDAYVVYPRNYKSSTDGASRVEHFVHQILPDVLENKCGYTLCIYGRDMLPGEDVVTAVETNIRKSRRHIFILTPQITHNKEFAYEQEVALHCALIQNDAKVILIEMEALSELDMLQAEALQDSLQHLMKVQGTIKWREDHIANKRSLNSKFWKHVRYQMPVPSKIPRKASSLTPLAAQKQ

Molecular target: Interleukin-1 receptor-like 1 (Homo sapiens) (UniProt Q01638)
Assay: blocks human ST2 binding to IL-33, primary screen, biochemical, AlphaLISA (AID 1259354)
Conditions: AlphaLISA ST2-Fc/biotin-IL-33 interaction, 1 h; at 17 µM, hits give high values

SMILES	inhibition
O=C1NCC(=O)N2CCN(C(=O)C3(c4ccccc4)CCCC3)CC12 (configuration not stated)	inconclusive: 17%
C[C@H]1[C@@H]2[C@@H](O)C([C@H](C)C(=O)N(C)Cc3ccccc3)CC[C@@]2(C)CC[C@@H]1NC(=O)c1ccc(C#N)cc1 (some centres not stated)	inactive
Cc1ccc(NCc2nc3ccccc3n2C)c(C)c1	inconclusive: 21%
O=C(c1ccc2[nH]c(=O)[nH]c2c1)N1CCOC(CCCc2ccccc2)C1 (configuration not stated)	inconclusive: 16%
Cc1cccc(OCC(=O)O/N=C(/N)c2ccc(Br)cc2)c1	inactive
N#Cc1c2c(c(Nc3ccncc3)n3c1nc1ccccc13)CCC2	inconclusive: 15%
O=C(NCCC1COc2ccccc2O1)c1cn(Cc2c(F)cccc2F)nn1 (configuration not stated)	inactive
CCCCC1C=CCN1C(=O)c1ccc(N2CC(=O)NC2=O)cc1 (configuration not stated)	inactive
COc1ccc(Cl)cc1Nc1n[nH]c(C)c1[N+](=O)[O-]	inconclusive: 13%
N#Cc1c(N)nc(SCC(=O)c2ccc(O)c(O)c2)c(C#N)c1-c1cccc(Cl)c1	inconclusive: 13%
COc1nc(Nc2ccc3c(c2)OCO3)nc(OC)n1	inactive
COc1ccc(-c2cnccc2C)cc1Cl	inconclusive: 16%
CC1(C)C=Cc2c(ccc3c(=O)cc(-c4ccccc4)oc23)O1	inactive
CC(=O)Nc1ccc(CN2C[C@H](O)C[C@H]2c2nc(-c3ccc4c(c3)OCO4)no2)cc1	inactive
C(=C\CN1CCCCC1)/CN1CCCCC1	inactive
CC(C)(C)c1ccc(OCC(O)CN2CCN(Cc3ccc4c(c3)OCO4)CC2)cc1 (configuration not stated)	inactive
CC1CC(C)CN(C(=O)COc2ccc3c(c2)C(=O)CC(C)(C)O3)C1 (configuration not stated)	inactive
O=C(c1ccc(Br)o1)N1CCN=C1SCc1ccccc1	inconclusive: 14%
COc1cccc(C(=O)Nc2c3c(nn2-c2ccc(F)cc2)CS(=O)C3)c1OC (configuration not stated)	inconclusive: 15%
CCOC(=O)C1(Cc2ccccc2C(F)(F)F)CCN(C(=O)C(=O)c2ccccc2)CC1	inconclusive: 16%
CCCn1c(C(C)NC(=O)COC)nc2ccccc21 (configuration not stated)	inconclusive: 14%
COCC(=O)NC[C@H]1O[C@@H](CO)[C@@H](O)[C@H]1N1CCN(c2ccc(F)cc2)CC1	inconclusive: 12%
CCOC(=O)c1c(NC(=O)c2ccc(C#N)cc2)sc2c1CCCCC2	inactive

Quoted from the entries so far (six entries):
SMILES	inhibition
CC(=O)Nc1ccc(CN2C[C@H](O)C[C@H]2c2nc(-c3ccc4c(c3)OCO4)no2)cc1	inactive
C(=C\CN1CCCCC1)/CN1CCCCC1	inactive
CC(C)(C)c1ccc(OCC(O)CN2CCN(Cc3ccc4c(c3)OCO4)CC2)cc1 (configuration not stated)	inactive
CC1CC(C)CN(C(=O)COc2ccc3c(c2)C(=O)CC(C)(C)O3)C1 (configuration not stated)	inactive
O=C(c1ccc(Br)o1)N1CCN=C1SCc1ccccc1	inconclusive: 14%
COc1cccc(C(=O)Nc2c3c(nn2-c2ccc(F)cc2)CS(=O)C3)c1OC (configuration not stated)	inconclusive: 15%

Continued:

SMILES	inhibition
Cc1nc(N2CCN(c3ccccn3)CC2)c2c(C)c(C(=O)N3CCC(C)CC3)sc2n1	inconclusive: 20%
O=C(Nc1nc(-c2ccccc2)cs1)c1cc(=O)c2ccccc2o1	inactive
Cc1cn(Cc2nc(-c3sccc3C)oc2C)cn1	inconclusive: 14%
CC1CCc2c(sc(NC(=O)c3ccc(S(=O)(=O)N4CC(C)CC(C)C4)cc3)c2C#N)C1 (configuration not stated)	inactive
COc1cccc(C2C(C(=O)Nc3ccc(C)cc3C)=C(C)Nc3nnnn32)c1 (configuration not stated)	inactive
COc1ccccc1N1CCN(C2CCCN(C(=O)c3cc(C)c[nH]3)C2)CC1 (configuration not stated)	inconclusive: 27%
O=C(C1CC(=O)N(C2CCCCCC2)C1)N1CCN(c2ccccc2)CC1 (configuration not stated)	inconclusive: 10%
CN1C[C@@H](NC(=O)Nc2cccc(F)c2)C[C@H]1c1nc(-c2ccc(F)cc2)no1	active: 36%
Cc1ccc(NC(=O)c2ccc(-c3cccc([N+](=O)[O-])c3)o2)cc1-c1nc2ncccc2o1	inconclusive: 17%
CCOc1ccc(C(O)=C2C(=O)C(=O)N(c3nnc(C)s3)C2c2cccc([N+](=O)[O-])c2)cc1 (configuration not stated)	inconclusive: 13%
Cc1cc(C)c(S(=O)(=O)N2CCN(c3ccccc3)CC2)cc1C	inactive
Cc1ccc(CN2CCC(CN(C)Cc3sc(N4CCCC4)nc3Cl)CC2)o1	inactive
COc1ccc(-n2nc3c(c2NC(=O)c2ccc(S(=O)(=O)N(C)C)cc2)CSC3)cc1	inconclusive: 17%
CCN(CC)CCCNCc1ccc(F)cc1Cl	inconclusive: 12%
CC(=O)Nc1ccc(S(=O)(=O)N[C@H]2CO[C@H]3[C@@H]2OC[C@@H]3n2nnnc2-c2ccc3c(c2)OCO3)cc1	inconclusive: 20%
Cc1nn(C)c(C)c1-c1ccnc(NC(C)c2ccc(F)cc2)n1 (configuration not stated)	inconclusive: 17%
O=[N+]([O-])c1ccc(S(=O)(=O)N2CCN(c3ccc(Cl)cc3)CC2)cc1	active: 33%
CCN(CC)S(=O)(=O)c1cccc(C(=O)Nc2ccc(OC)cc2)c1	inconclusive: 10%
CC(=O)c1ccc(NC(=O)c2ccc(S(=O)(=O)c3ccc(Cl)cc3)cc2)cc1	inconclusive: 14%
Cc1ccc(NC(=O)CCN2C(=O)S/C(=C\c3ccccc3)C2=O)cc1	inactive
CCN(CC)c1ccc2cc(C(N)=O)c(=Nc3cccc(C)c3)oc2c1	inconclusive: 23%
Cc1ccc(N2CC[C@@](C)(O)[C@@H](Cc3ccccc3)C2)nn1	inconclusive: 17%
CCC(=O)N1c2ccccc2-c2nnc(SC)nc2OC1c1ccccc1F (configuration not stated)	inconclusive: 13%

SMILES	inhibition
O=C(CCCc1ccccc1)N1CCN(c2ccccn2)CC1	inactive
Cc1ccc(S(=O)(=O)NC[C@H]2O[C@@H](CO)[C@@H](O)[C@H]2N(C)Cc2ccccc2)cc1	inconclusive: 11%
O=C(NC[C@H]1O[C@@H](CC(=O)N2CCOCC2)[C@H](O)[C@@H]1O)Nc1ccc(F)cc1F	inconclusive: 10%
Cc1oc(-c2ccccc2Cl)nc1CSCC(=O)N1CCCC1	inconclusive: 15%
O=C(Nc1ccc(C(=O)N2CCOCC2)cc1)c1cccc(N=CC(O)CO)c1 (configuration not stated)	inconclusive: 20%
CS(=O)(=O)N1CCC(CCC(=O)NC2CCN(Cc3ccccc3)C2)CC1 (configuration not stated)	inactive
CCn1ncc(C(=O)NC(C)CCc2ccco2)c1C (configuration not stated)	inconclusive: 13%
Cc1ccc(NC(=O)c2ccccc2[N+](=O)[O-])nc1	inconclusive: 19%
CN(Cc1ncccc1C(=O)O)C1CCN(Cc2ccccc2)C1 (configuration not stated)	inconclusive: 12%
CCNC(=O)N1c2ccccc2C(C)(c2ccccc2)CC1(C)C (configuration not stated)	inconclusive: 14%
COc1nc(N)nc(OC)c1-c1ccccc1	inconclusive: 12%
CCC1CN(Cc2c(Cl)ccc(O)c2Cl)CCN1C(C)C (configuration not stated)	inactive
CC1(C)OC(=O)C=C[C@@]2(C)C1CC(=O)[C@]1(C)C2CC[C@@]2(C)[C@H](c3ccoc3)OC(=O)[C@H]3O[C@]321 (some centres not stated)	inconclusive: 11%
O=C(NCCCN1CCCCC1)C1C2C=CC3(CN(Cc4cccs4)C(=O)C13)O2 (configuration not stated)	inactive
CN(Cc1ccccc1)C1(CNC(=O)c2ccoc2)Cc2ccccc2C1	inconclusive: 14%
Cn1c(=O)c2c(nc3n(Cc4ccccc4)c(-c4ccc(F)cc4)cn23)n(C)c1=O	inactive
COc1cccc2cc(-c3csc(NC(C)=O)n3)c(=O)oc12	inconclusive: 11%
Cc1cccc(NC(=O)CSc2ncc(-c3ccc(Br)cc3)[nH]2)c1	inconclusive: 18%
O=C(O)c1ccc2c(c1)C1C=CCC1C(c1cccc(Br)c1)N2 (configuration not stated)	inconclusive: 21%
COc1cccc(C(=O)Nc2cc3c(ccc4ccccc43)oc2=O)c1	inconclusive: 15%
CC(CNC(=O)CCC(=O)NC1CCCC1)c1ccc(Cl)cc1 (configuration not stated)	inconclusive: 13%
O=C(Nc1c2c(nn1-c1ccccc1)CSC2)c1ccc(S(=O)(=O)N2CCOCC2)cc1	inconclusive: 21%
CCN1CCc2nc(N)oc2CC1	inconclusive: 10%

SMILES	inhibition
CCC(=O)Nc1cccc(C(=O)N2C[C@]3(C)C[C@H]2CC(C)(C)C3)c1	inactive
CC(C)(C)CN1CCNC(=O)C1CC(=O)NC(C)(C)CN1CCCC1 (configuration not stated)	inactive
c1cc(CN(Cc2ccsc2)CC2CCCO2)n(-c2nccs2)c1 (configuration not stated)	inconclusive: 16%
CCOc1ccccc1N1CCN(Cc2ccc(N(C)C)cc2)CC1	inconclusive: 16%
O=C(Nc1ccc(-c2nc3ccccc3o2)c(O)c1)c1ccccc1F	inconclusive: 26%
COc1cc(OC)c(NC(=O)NCCc2nc3cccnc3n2C2CCCCC2)cc1Cl	inconclusive: 11%
Cc1ccccc1-c1nc(CSCC(=O)N2CCN(c3ccccn3)CC2)c(C)o1	inconclusive: 15%
O=C1c2ccccc2C(=O)C1c1cc2ccccc2cn1	inconclusive: 28%
O=C1C=C(c2ccccc2)C[C@H](c2cccs2)[C@H]1n1nnc2ccccc21	inconclusive: 27%
COc1ccccc1NC(=O)c1cc2cc(Br)ccc2oc1=N	inconclusive: 10%
O=S(=O)(Nc1cnc2ccccc2c1)c1ccc(F)cc1	inactive
CC(=O)NCCCC1=CCN(C2C=CCCC2)CC1 (configuration not stated)	inconclusive: 25%
COCCNC(=O)C[C@@H]1C[C@@H](C(C)C)[C@H](CNC(=O)CCC(=O)O)C=C1C	inconclusive: 12%
CN1[C@@H](CCC(=O)NCc2ccc(F)cc2)CNC(=O)[C@@H]2[C@H]1CCN2Cc1ccc(F)cc1	inconclusive: 13%
CCSc1nccc(=O)[nH]1	inconclusive: 14%
Cc1ccc(N2C(=O)CC(n3nc(C)c(C)c3C)C2=O)cc1 (configuration not stated)	inconclusive: 25%
O=C(COc1ccc(Cl)cc1Cl)NCC1CCCO1 (configuration not stated)	inactive
COc1ccc(Cl)cc1N1C(=O)C2CCCN2C1c1sccc1C (configuration not stated)	inconclusive: 10%
Cc1cc(N2CCCCC2)nc(N2CCN(S(=O)(=O)c3ccc(I)cc3)CC2)n1	inconclusive: 20%
O=C1N(Cc2ccccc2)c2ccccc2C12Oc1ccccc1C1CC(c3ccco3)=NN12 (configuration not stated)	inconclusive: 27%
O=C(Nc1ccccc1C(F)(F)F)c1cc([N+](=O)[O-])ccc1Cl	inconclusive: 22%
Cc1cc2c3c(C)n(C)c(C)c3c(C)nn2c1	active: 54%
COc1ccc(CNC2CCCCCC2)c(OC)c1	inconclusive: 23%
